Values from PubChem BioAssay AID1259254 (NCATS, 2017)

Aim: 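Finding genes that stop cells copying their DNA twice in one cycle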 (primary screen)
Cells: human HCT116 colorectal cancer cells
Knock-down reagent: single siRNA against human genes
Timing: 3 days
Measured: 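Imaged Hoechst DNA stain sorts each cell into a cycle phase by DNA amount; per plate, G2 fraction set to 0% for non-targeting and 100% for GMNN siRNA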
Direction: G2 robust z-score and G2 cells, % of GMNN control: higher = more G2 cells, more excess DNA replication
Rule for the call: 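Active siRNAs have a G2 robust z of 5 or more median absolute deviations over the median, which in these data means about 38% or higher of GMNN control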
The deposit covers about 59,000 reagents; shown is a random part of them. Of all reagents, about 1,550 (2.6%) are marked active. 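G2 share is only a proxy for re-replication; each gene was hit by three separate siRNAs, and active genes were retested.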 Reagents against one gene are numbered here. Not all columns of the deposit are shown. Not stated in the record: the amount of reagent.

gene | siRNA no. | G2 robust z-score | G2 cells, % of GMNN control | Outcome
LINC02447 (GeneID 730971) | 1 | 3.42 | 27 | inactive
LINC02447 (GeneID 730971) | 2 | 3.6 | 28.3 | inactive
LINC02447 (GeneID 730971) | 3 | 1.16 | 11.2 | inactive
NAIF1 (GeneID 203245) | 1 | 0.135 | 3.92 | inactive
NAIF1 (GeneID 203245) | 2 | -0.402 | 0.136 | inactive
NAIF1 (GeneID 203245) | 3 | -0.755 | -2.34 | inactive
ANKDD1A (GeneID 348094) | 1 | 0.787 | 8.5 | inactive
ANKDD1A (GeneID 348094) | 2 | -0.399 | 0.161 | inactive
ANKDD1A (GeneID 348094) | 3 | 0.63 | 7.4 | inactive
FGGY (GeneID 55277) | 1 | -0.573 | -1.06 | inactive
FGGY (GeneID 55277) | 2 | -0.39 | 0.225 | inactive
FGGY (GeneID 55277) | 3 | 2.08 | 17.6 | inactive
GPR137 (GeneID 56834) | 1 | 1.47 | 13.3 | inactive
GPR137 (GeneID 56834) | 2 | 1.19 | 11.3 | inactive
GPR137 (GeneID 56834) | 3 | 2.5 | 20.6 | inactive
OR2T4 (GeneID 127074) | 1 | -0.826 | -2.84 | inactive
OR2T4 (GeneID 127074) | 2 | -0.131 | 2.05 | inactive
OR2T4 (GeneID 127074) | 3 | 0.815 | 8.7 | inactive
INSL3 (GeneID 3640) | 1 | -1.37 | -6.68 | inactive
INSL3 (GeneID 3640) | 2 | 1.38 | 12.7 | inactive
INSL3 (GeneID 3640) | 3 | 5.26 | 40 | active
TREX2 (GeneID 11219) | 1 | -0.731 | -2.18 | inactive
TREX2 (GeneID 11219) | 2 | 1.25 | 11.8 | inactive
TREX2 (GeneID 11219) | 3 | 5.43 | 41.1 | active
OR51F2 (GeneID 119694) | 1 | 6.41 | 48.1 | active
OR51F2 (GeneID 119694) | 2 | -0.597 | -1.23 | inactive
OR51F2 (GeneID 119694) | 3 | 0.119 | 3.8 | inactive
TRAF7 (GeneID 84231) | 1 | 0.797 | 8.58 | inactive
TRAF7 (GeneID 84231) | 2 | 0.197 | 4.35 | inactive
TRAF7 (GeneID 84231) | 3 | -0.886 | -3.26 | inactive
PWP1 (GeneID 11137) | 1 | 1.83 | 15.8 | inactive
PWP1 (GeneID 11137) | 2 | -0.303 | 0.833 | inactive
PWP1 (GeneID 11137) | 3 | -0.342 | 0.561 | inactive
XAB2 (GeneID 56949) | 1 | 3.46 | 27.3 | inactive
XAB2 (GeneID 56949) | 2 | 0.856 | 8.99 | inactive
XAB2 (GeneID 56949) | 3 | -1.19 | -5.4 | inactive
ZFPM1 (GeneID 161882) | 1 | -0.225 | 1.38 | inactive
ZFPM1 (GeneID 161882) | 2 | -1.48 | -7.43 | inactive
ZFPM1 (GeneID 161882) | 3 | 1.76 | 15.4 | inactive
CUX2 (GeneID 23316) | 1 | 3.3 | 26.2 | inactive
CUX2 (GeneID 23316) | 2 | -0.502 | -0.567 | inactive
CUX2 (GeneID 23316) | 3 | -0.56 | -0.97 | inactive
TRIP10 (GeneID 9322) | 1 | -1.09 | -4.73 | inactive
TRIP10 (GeneID 9322) | 2 | -1.04 | -4.37 | inactive
TRIP10 (GeneID 9322) | 3 | -0.668 | -1.73 | inactive
RHBG (GeneID 57127) | 1 | 3.99 | 31 | inactive
RHBG (GeneID 57127) | 2 | -0.991 | -4.01 | inactive
RHBG (GeneID 57127) | 3 | -0.816 | -2.77 | inactive
SLN (GeneID 6588) | 1 | -0.316 | 0.743 | inactive
SLN (GeneID 6588) | 2 | -0.335 | 0.612 | inactive
SLN (GeneID 6588) | 3 | 5.16 | 39.2 | active

Reagents above called active (4):
gene | siRNA no. | G2 robust z-score | G2 cells, % of GMNN control | Outcome
INSL3 (GeneID 3640) | 3 | 5.26 | 40 | active
TREX2 (GeneID 11219) | 3 | 5.43 | 41.1 | active
OR51F2 (GeneID 119694) | 1 | 6.41 | 48.1 | active
SLN (GeneID 6588) | 3 | 5.16 | 39.2 | active

The results go on:
gene | siRNA no. | G2 robust z-score | G2 cells, % of GMNN control | Outcome
MBOAT7 (GeneID 79143) | 1 | -0.652 | -1.62 | inactive
MBOAT7 (GeneID 79143) | 2 | 4 | 31.1 | inactive
MBOAT7 (GeneID 79143) | 3 | -0.0811 | 2.4 | inactive
ISM1 (GeneID 140862) | 1 | 0.434 | 6.02 | inactive
ISM1 (GeneID 140862) | 2 | 2.49 | 20.5 | inactive
ISM1 (GeneID 140862) | 3 | 0.314 | 5.17 | inactive
CFAP161 (GeneID 161502) | 1 | 0.107 | 3.72 | inactive
CFAP161 (GeneID 161502) | 2 | -0.411 | 0.0769 | inactive
CFAP161 (GeneID 161502) | 3 | -0.659 | -1.67 | inactive
ADAP1 (GeneID 11033) | 1 | 0.128 | 3.87 | inactive
ADAP1 (GeneID 11033) | 2 | -0.111 | 2.19 | inactive
ADAP1 (GeneID 11033) | 3 | -0.995 | -4.04 | inactive
GEMIN4 (GeneID 50628) | 1 | 0.573 | 7 | inactive
GEMIN4 (GeneID 50628) | 2 | 2.71 | 22.1 | inactive
GEMIN4 (GeneID 50628) | 3 | -1.02 | -4.23 | inactive
FAM131C (GeneID 348487) | 1 | -0.397 | 0.172 | inactive
FAM131C (GeneID 348487) | 2 | 1.46 | 13.3 | inactive
FAM131C (GeneID 348487) | 3 | -0.189 | 1.64 | inactive
C8orf44 (GeneID 56260) | 1 | -0.257 | 1.16 | inactive
C8orf44 (GeneID 56260) | 2 | -0.632 | -1.48 | inactive
C8orf44 (GeneID 56260) | 3 | -0.164 | 1.81 | inactive
TRAPPC5 (GeneID 126003) | 1 | 1.17 | 11.2 | inactive
TRAPPC5 (GeneID 126003) | 2 | 0.669 | 7.67 | inactive
TRAPPC5 (GeneID 126003) | 3 | 0.394 | 5.74 | inactive
RAB11FIP2 (GeneID 22841) | 1 | -0.209 | 1.5 | inactive
RAB11FIP2 (GeneID 22841) | 2 | 1.23 | 11.6 | inactive
RAB11FIP2 (GeneID 22841) | 3 | 1.32 | 12.3 | inactive
H2AZ2P1 (GeneID 654500) | 1 | -0.958 | -3.78 | inactive
H2AZ2P1 (GeneID 654500) | 2 | 3.85 | 30.1 | inactive
H2AZ2P1 (GeneID 654500) | 3 | 2.15 | 18.1 | inactive
ZCRB1 (GeneID 85437) | 1 | -1.07 | -4.56 | inactive
ZCRB1 (GeneID 85437) | 2 | -0.401 | 0.144 | inactive
ZCRB1 (GeneID 85437) | 3 | -1.77 | -9.46 | inactive
ZBTB4 (GeneID 57659) | 1 | 0.718 | 8.02 | inactive
ZBTB4 (GeneID 57659) | 2 | 1.63 | 14.5 | inactive
ZBTB4 (GeneID 57659) | 3 | -1.23 | -5.69 | inactive
